These are yes or no findings as the source states them, for the method shown. In cells and extracts the contact can be indirect. These calls come from enrichment with a bait or labelling near it, and not all partners need be listed.
Target: FLAG-tagged polycystin-1 (PC1) (UniProt P98161)
Test: affinity purification with mass spectrometry

Amino acid sequences for entries named in this document (tags omitted). Residues count along the entry.
UniProt P98161, residues 24-4303: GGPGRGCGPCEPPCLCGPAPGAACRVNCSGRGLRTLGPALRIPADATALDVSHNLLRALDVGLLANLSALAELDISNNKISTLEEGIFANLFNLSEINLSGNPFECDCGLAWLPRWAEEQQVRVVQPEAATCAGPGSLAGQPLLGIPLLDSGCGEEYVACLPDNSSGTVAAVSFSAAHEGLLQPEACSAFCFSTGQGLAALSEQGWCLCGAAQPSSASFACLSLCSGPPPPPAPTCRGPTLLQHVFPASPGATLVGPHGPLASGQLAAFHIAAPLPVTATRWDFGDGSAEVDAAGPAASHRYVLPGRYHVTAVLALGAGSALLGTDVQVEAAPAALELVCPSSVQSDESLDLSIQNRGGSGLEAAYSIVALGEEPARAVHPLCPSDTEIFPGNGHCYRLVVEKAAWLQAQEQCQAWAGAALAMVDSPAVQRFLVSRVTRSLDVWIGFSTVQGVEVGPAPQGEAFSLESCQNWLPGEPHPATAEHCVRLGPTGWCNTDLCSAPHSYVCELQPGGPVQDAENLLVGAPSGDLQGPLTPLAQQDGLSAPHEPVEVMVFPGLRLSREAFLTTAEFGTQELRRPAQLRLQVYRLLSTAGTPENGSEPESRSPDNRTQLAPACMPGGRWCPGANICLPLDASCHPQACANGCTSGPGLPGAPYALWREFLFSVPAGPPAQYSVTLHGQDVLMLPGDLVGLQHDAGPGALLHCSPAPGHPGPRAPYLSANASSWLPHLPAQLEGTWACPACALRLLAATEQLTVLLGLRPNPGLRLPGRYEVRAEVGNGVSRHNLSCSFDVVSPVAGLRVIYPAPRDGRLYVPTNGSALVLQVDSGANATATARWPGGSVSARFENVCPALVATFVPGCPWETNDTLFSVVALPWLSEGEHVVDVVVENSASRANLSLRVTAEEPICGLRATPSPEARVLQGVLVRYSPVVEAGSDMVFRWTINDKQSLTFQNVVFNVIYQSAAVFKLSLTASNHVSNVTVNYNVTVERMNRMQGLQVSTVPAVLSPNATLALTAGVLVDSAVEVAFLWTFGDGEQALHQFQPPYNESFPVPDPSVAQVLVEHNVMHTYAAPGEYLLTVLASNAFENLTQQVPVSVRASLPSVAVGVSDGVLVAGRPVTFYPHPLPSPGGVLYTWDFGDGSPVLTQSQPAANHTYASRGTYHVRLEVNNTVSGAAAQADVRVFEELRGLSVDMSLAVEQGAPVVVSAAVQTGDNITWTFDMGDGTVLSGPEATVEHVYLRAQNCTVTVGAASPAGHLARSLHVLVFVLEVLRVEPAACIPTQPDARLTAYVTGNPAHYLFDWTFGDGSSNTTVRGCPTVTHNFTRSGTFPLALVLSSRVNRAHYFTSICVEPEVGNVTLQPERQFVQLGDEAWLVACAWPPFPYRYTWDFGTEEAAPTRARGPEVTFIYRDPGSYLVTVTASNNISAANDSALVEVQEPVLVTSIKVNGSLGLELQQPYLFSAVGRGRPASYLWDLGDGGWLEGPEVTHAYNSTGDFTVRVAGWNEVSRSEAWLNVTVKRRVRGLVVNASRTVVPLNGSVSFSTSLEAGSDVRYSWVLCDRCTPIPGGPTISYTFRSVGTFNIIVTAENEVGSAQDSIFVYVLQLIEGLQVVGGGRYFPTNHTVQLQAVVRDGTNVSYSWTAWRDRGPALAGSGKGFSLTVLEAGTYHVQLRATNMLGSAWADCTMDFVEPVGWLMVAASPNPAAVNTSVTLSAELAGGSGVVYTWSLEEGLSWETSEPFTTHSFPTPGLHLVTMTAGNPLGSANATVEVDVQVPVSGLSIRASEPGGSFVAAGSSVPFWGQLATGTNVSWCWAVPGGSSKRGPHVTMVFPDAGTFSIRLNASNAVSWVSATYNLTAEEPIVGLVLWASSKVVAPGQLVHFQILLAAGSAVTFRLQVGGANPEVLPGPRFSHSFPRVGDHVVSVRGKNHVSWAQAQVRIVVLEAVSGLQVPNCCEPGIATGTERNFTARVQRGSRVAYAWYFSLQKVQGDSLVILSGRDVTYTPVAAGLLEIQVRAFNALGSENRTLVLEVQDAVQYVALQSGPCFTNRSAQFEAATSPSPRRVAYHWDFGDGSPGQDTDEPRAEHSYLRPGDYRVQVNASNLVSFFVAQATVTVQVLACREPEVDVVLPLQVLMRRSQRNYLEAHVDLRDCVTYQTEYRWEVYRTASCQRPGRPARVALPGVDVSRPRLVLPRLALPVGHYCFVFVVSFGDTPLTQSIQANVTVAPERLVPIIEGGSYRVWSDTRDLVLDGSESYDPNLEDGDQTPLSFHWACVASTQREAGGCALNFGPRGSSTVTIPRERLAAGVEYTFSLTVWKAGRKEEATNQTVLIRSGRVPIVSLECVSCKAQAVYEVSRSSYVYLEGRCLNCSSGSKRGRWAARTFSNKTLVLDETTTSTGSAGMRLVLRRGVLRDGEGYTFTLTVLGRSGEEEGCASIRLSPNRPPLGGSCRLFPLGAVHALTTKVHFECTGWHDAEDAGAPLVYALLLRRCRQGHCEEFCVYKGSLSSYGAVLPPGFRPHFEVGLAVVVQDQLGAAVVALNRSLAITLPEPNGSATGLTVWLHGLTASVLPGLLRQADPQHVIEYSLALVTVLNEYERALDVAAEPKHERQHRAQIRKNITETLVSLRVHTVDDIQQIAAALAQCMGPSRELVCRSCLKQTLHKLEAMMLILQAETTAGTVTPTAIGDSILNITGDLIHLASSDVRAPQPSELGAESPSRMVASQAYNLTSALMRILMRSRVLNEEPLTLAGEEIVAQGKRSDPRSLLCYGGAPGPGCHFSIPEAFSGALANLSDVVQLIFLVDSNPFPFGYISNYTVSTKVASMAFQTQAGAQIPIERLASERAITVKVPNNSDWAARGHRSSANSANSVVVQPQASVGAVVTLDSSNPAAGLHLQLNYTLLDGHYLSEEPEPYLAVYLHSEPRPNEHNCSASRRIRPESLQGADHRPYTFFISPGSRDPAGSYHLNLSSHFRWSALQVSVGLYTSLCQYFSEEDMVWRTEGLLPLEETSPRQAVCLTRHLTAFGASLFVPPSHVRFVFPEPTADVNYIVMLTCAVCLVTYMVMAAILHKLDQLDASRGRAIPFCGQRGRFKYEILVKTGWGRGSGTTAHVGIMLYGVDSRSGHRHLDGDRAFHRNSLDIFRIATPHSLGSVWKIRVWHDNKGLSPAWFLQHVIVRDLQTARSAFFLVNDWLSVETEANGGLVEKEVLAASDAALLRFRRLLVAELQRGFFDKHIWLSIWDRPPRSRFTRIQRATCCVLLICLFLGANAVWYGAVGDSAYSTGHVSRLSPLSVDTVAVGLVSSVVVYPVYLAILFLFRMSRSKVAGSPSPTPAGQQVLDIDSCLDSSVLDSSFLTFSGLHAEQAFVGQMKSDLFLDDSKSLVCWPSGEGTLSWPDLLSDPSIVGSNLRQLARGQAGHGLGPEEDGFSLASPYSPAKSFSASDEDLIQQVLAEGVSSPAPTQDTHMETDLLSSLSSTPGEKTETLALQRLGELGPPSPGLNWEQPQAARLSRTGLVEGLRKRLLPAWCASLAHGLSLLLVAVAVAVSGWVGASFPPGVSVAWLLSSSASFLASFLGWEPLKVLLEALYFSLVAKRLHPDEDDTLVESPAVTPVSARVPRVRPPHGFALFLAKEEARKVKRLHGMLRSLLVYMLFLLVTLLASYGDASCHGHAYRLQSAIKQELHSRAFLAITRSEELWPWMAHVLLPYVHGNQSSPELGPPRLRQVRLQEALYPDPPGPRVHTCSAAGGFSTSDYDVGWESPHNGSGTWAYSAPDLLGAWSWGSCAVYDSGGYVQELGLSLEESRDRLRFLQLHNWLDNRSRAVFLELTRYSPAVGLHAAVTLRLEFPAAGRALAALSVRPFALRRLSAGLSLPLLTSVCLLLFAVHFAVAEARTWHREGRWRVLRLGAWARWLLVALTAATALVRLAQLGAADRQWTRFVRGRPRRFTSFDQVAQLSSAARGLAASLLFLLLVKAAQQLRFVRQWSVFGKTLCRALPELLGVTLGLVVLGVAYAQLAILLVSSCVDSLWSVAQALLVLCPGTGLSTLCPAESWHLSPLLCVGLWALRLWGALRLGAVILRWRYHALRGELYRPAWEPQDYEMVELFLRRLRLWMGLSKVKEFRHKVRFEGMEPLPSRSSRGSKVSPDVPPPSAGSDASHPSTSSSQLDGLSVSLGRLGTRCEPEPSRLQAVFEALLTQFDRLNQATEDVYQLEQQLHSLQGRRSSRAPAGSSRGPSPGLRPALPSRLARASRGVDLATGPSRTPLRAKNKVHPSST
UniProt Q9UBS4, residues 23-358: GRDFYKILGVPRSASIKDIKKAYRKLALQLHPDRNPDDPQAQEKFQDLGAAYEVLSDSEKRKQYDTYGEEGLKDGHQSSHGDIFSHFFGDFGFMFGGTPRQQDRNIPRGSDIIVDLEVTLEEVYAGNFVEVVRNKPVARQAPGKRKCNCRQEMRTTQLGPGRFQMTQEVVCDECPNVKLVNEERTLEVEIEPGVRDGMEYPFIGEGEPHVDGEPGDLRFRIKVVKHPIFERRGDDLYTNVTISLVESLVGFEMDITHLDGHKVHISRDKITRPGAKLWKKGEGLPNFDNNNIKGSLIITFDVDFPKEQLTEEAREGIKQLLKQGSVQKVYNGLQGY

- binding: binds
Substance: DNAJB11 (endogenous, HEK 293T) (from UniProt Q9UBS4 23-358)
